Values from PubChem BioAssay AID1259291 (Sanger Institute, 2017)
The deposit covers 794 reagents; below is a part drawn at random. In the full data, 15 (1.9%) were called active. 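Calls rest on knock-down alone; drug synergy scores do not affect them; drugs added a day post-transfection, DMSO vehicle as comparison.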 The numbers tell different reagents against one gene apart. Not all columns of the deposit are shown. Not stated in the record: the amount of reagent, the time to read-out.

Aim: 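Genes needed for HT29 colorectal cancer cell survival or for sensitivity to drugs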 (primary screen)
Cell system: HT29 human colorectal cancer cells
Reagent: siRNA pool against human genes
Challenge: anchor drugs added a day after transfection: BYL719 at 1 µM, cetuximab at 5 µg/ml or trametinib at 10 nM, or DMSO vehicle alone
Measurement: 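Replicate-averaged viability relative to non-targeting pool, robust z-score based on control wells, plus per-drug synergy score for 1 µM BYL719, 5 µg/ml cetuximab and 10 nM trametinib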
Reading the numbers: robust z-score, knock-down alone: higher = more viable cells
Active means: 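a knock-down alone scoring under -3 on robust z-score is called essential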
Calls: active = essential (knock-down alone); inactive = no change alone

robust z-score, knock-down alone, by gene and reagent
TSSK1B (testis specific serine kinase 1B): #1 0.0831 inactive
CILK1 (ciliogenesis associated kinase 1): #1 -0.95 inactive
MAPK4 (mitogen-activated protein kinase 4): #1 0.552 inactive
FOXP1 (forkhead box P1): #1 0.296 inactive
NME3 (NME/NM23 nucleoside diphosphate kinase 3): #1 0.0202 inactive
CMPK1 (cytidine/uridine monophosphate kinase 1): #1 0.552 inactive
CKM (creatine kinase, M-type): #1 0.341 inactive
PDK2 (pyruvate dehydrogenase kinase 2): #1 0.552 inactive
PIK3C2B: #1 0.552 inactive
MAPK15 (mitogen-activated protein kinase 15): #1 -0.293 inactive
NME6 (NME/NM23 nucleoside diphosphate kinase 6): #1 0.552 inactive
NME7 (NME/NM23 family member 7): #1 0.552 inactive
FRK (fyn related Src family tyrosine kinase): #1 0.552 inactive
CDK12 (cyclin dependent kinase 12): #1 -0.229 inactive
ILK (integrin linked kinase): #1 0.552 inactive; #2 -0.625 inactive

Copied from above (7 entries):
robust z-score, knock-down alone, by gene and reagent
MAPK4 (mitogen-activated protein kinase 4): #1 0.552 inactive
FOXP1 (forkhead box P1): #1 0.296 inactive
NME3 (NME/NM23 nucleoside diphosphate kinase 3): #1 0.0202 inactive
CMPK1 (cytidine/uridine monophosphate kinase 1): #1 0.552 inactive
CKM (creatine kinase, M-type): #1 0.341 inactive
PDK2 (pyruvate dehydrogenase kinase 2): #1 0.552 inactive
PIK3C2B: #1 0.552 inactive

More reagents follow.
robust z-score, knock-down alone, by gene and reagent
TSSK2 (testis specific serine kinase 2): #1 0.552 inactive
NEK2 (NIMA related kinase 2): #1 0.552 inactive
RIPK4 (receptor interacting serine/threonine kinase 4): #1 0.552 inactive
DUSP21 (dual specificity phosphatase 21): #1 0.552 inactive
CSNK1G2 (casein kinase 1 gamma 2): #1 0.552 inactive
ULK4 (unc-51 like kinase 4): #1 -0.33 inactive
CRKL (CRK like proto-oncogene, adaptor protein): #1 0.552 inactive
EPHA6 (EPH receptor A6): #1 0.552 inactive
ABL1 (ABL proto-oncogene 1, non-receptor tyrosine kinase): #1 0.552 inactive
CAMK2G (calcium/calmodulin dependent protein kinase II gamma): #1 -1.82 inactive
RPS6KA5 (ribosomal protein S6 kinase A5): #1 0.356 inactive
PTPRU (protein tyrosine phosphatase receptor type U): #1 -0.582 inactive
TBX3 (T-box transcription factor 3): #1 -0.852 inactive
MAPK14 (mitogen-activated protein kinase 14): #1 0.201 inactive
CAMK1G (calcium/calmodulin dependent protein kinase IG): #1 0.552 inactive
STK33 (serine/threonine kinase 33): #1 -0.53 inactive
TYK2 (tyrosine kinase 2): #1 0.552 inactive
LATS2 (large tumor suppressor kinase 2): #1 0.552 inactive
MVK (mevalonate kinase): #1 0.552 inactive
GSK3A (glycogen synthase kinase 3 alpha): #1 0.0287 inactive
PXK (PX domain containing serine/threonine kinase like): #1 0.155 inactive
CDKN2B (cyclin dependent kinase inhibitor 2B): #1 -0.506 inactive
MLKL (mixed lineage kinase domain like pseudokinase): #1 -1.88 inactive
UHMK1 (U2AF homology motif kinase 1): #1 0.021 inactive
NAGK (N-acetylglucosamine kinase): #1 0.552 inactive
GSK3B (glycogen synthase kinase 3 beta): #1 0.552 inactive
AKT1 (AKT serine/threonine kinase 1): #1 0.552 inactive
MAPKAPK2 (MAPK activated protein kinase 2): #1 0.296 inactive
GUCY2EP (guanylate cyclase 2E, pseudogene): #1 -0.696 inactive
CDC42BPG (CDC42 binding protein kinase gamma): #1 0.552 inactive
TSSK6 (testis specific serine kinase 6): #1 0.552 inactive
PHKG2 (phosphorylase kinase catalytic subunit gamma 2): #1 0.552 inactive
CDK6 (cyclin dependent kinase 6): #1 0.552 inactive
CLK3 (CDC like kinase 3): #1 0.552 inactive
